Results: the supplement of paper PMC11264405

Experiments:
Assay in all cases: minimum inhibitory concentration
linezolid = compound: CC(=O)NC[C@H]1CN(c2ccc(N3CCOCC3)c(F)c2)C(=O)O1 [linezolid]
clindamycin = compound: CCC[C@@H]1C[C@@H](C(=O)N[C@@H]([C@H]2O[C@H](SC)[C@H](O)[C@@H](O)[C@H]2O)[C@H](C)Cl)N(C)C1 [clindamycin]
fidaxomicin = compound: CCc1c(Cl)c(O)c(Cl)c(O)c1C(=O)O[C@H]1[C@H](O)[C@H](OC)[C@H](OC/C2=C\C=C\C[C@H](O)/C(C)=C/[C@H](CC)[C@@H](O[C@@H]3OC(C)(C)[C@@H](OC(=O)C(C)C)[C@H](O)[C@@H]3O)/C(C)=C/C(C)=C/C[C@@H]([C@@H](C)O)OC2=O)O[C@@H]1C [fidaxomicin]
tigecycline = compound: CN(C)c1cc(NC(=O)CNC(C)(C)C)c(O)c2c1C[C@H]1C[C@H]3[C@H](N(C)C)C(O)=C(C(N)=O)C(=O)[C@@]3(O)C(O)=C1C2=O [tigecycline]
rifampicin = compound: CO[C@H]1/C=C/O[C@@]2(C)Oc3c(C)c(O)c4c(O)c(c(/C=N/N5CCN(C)CC5)c(O)c4c3C2=O)NC(=O)/C(C)=C\C=C\[C@H](C)[C@H](O)[C@@H](C)[C@@H](O)[C@@H](C)[C@H](OC(C)=O)[C@@H]1C [rifampicin]
imipenem = compound: C[C@@H](O)[C@H]1C(=O)N2C(C(=O)O)=C(SCCNC=N)C[C@H]12 [imipenem]
meropenem = compound: C[C@@H](O)[C@H]1C(=O)N2C(C(=O)O)=C(S[C@@H]3CN[C@H](C(=O)N(C)C)C3)[C@H](C)[C@H]12 [meropenem]
metronidazole = compound: Cc1ncc([N+](=O)[O-])n1CCO [metronidazole]
vancomycin = compound: CN[C@H](CC(C)C)C(=O)N[C@H]1C(=O)N[C@@H](CC(N)=O)C(=O)N[C@H]2C(=O)N[C@H]3C(=O)N[C@H](C(=O)N[C@H](C(=O)O)c4cc(O)cc(O)c4-c4cc3ccc4O)[C@H](O)c3ccc(c(Cl)c3)Oc3cc2cc(c3O[C@@H]2O[C@H](CO)[C@@H](O)[C@H](O)[C@H]2O[C@H]2C[C@](C)(N)[C@H](O)[C@H](C)O2)Oc2ccc(cc2Cl)[C@H]1O [vancomycin]

Row | Test System | minimum inhibitory concentration (linezolid) [µg/mL] | minimum inhibitory concentration (clindamycin) [µg/mL] | minimum inhibitory concentration (fidaxomicin) [µg/mL] | minimum inhibitory concentration (tigecycline) [µg/mL] | minimum inhibitory concentration (rifampicin) [µg/mL] | minimum inhibitory concentration (imipenem) [µg/mL] | minimum inhibitory concentration (meropenem) [µg/mL] | minimum inhibitory concentration (metronidazole) [µg/mL] | minimum inhibitory concentration (vancomycin) [µg/mL]
1 | Clostridioides difficile PCR ribotype 003 isolate #28 (European region: South, country: Italy, isolate source: Human, ribotype: 003) | 2 | 8 | 0.06 | 0.125 | < 0.001 | 4 | 2 | 0.25 | 
2 | Clostridioides difficile PCR ribotype 005 isolate #35 (European region: East, country: Poland, isolate source: Human, ribotype: 005) | 2 | 8 | 0.06 | < 0.03 | < 0.001 | 2 | 2 | 1 | 
3 | Clostridioides difficile PCR ribotype 009 isolate #39 (European region: South, country: Italy, isolate source: Human, ribotype: 009) | 2 | 16 | 0.06 | < 0.03 | < 0.001 | 1 |  | < 0.125 | 0.5
4 | Clostridioides difficile PCR ribotype 010 isolate #46 (European region: South, country: Spain, isolate source: Human, ribotype: 010) | 2 | 8 |  | < 0.03 | 0.002 | 4 | 4 | 0.25 | 0.5
5 | Clostridioides difficile PCR ribotype 010 isolate #53 (European region: West, country: Netherlands, isolate source: Human, ribotype: 010) | 2 | 0.5 | 0.06 | 0.125 | < 0.001 | 2 | 2 | 0.25 | 
6 | Clostridioides difficile PCR ribotype 010 isolate #54 (European region: South, country: Italy, isolate source: Human, ribotype: 010) | 1 | < 0.125 | 0.125 | < 0.03 | < 0.001 | 2 | 2 | 0.25 | 
7 | Clostridioides difficile PCR ribotype 014 isolate #69 (European region: South, country: Italy, isolate source: Human, ribotype: 014) | 2 | 16 | 0.125 | < 0.03 | < 0.001 | 2 | 2 | 0.25 | 
8 | Clostridioides difficile PCR ribotype 014 isolate #72 (European region: South, country: Italy, isolate source: Human, ribotype: 014) | 2 | 16 | 0.015 | < 0.03 | < 0.001 | 2 | 2 | < 0.125 | 
9 | Clostridioides difficile PCR ribotype 014 isolate #77 (European region: South, country: Italy, isolate source: Human, ribotype: 014) | 2 | 16 | 0.015 | 0.125 | < 0.001 | 2 |  | 0.25 | 0.5
10 | Clostridioides difficile PCR ribotype 014 isolate #78 (European region: West, country: Belgium, isolate source: Human, ribotype: 014) | 2 | 0.5 | 0.015 | 0.125 | < 0.001 | 1 | 2 | < 0.125 | 
11 | Clostridioides difficile PCR ribotype 018 isolate #91 (European region: South, country: Italy, isolate source: Human, ribotype: 018) | 2 | 8 | 0.03 | < 0.03 | > 32 | 4 | 4 | 0.25 | 
12 | Clostridioides difficile PCR ribotype 018 isolate #92 (European region: South, country: Italy, isolate source: Human, ribotype: 018) | 2 | 16 | 0.06 | < 0.03 | < 0.001 | 4 | 4 | < 0.125 | 
13 | Clostridioides difficile PCR ribotype 027 isolate #118 (European region: South, country: Italy, isolate source: Human, ribotype: 027) | < 0.125 | 0.25 |  | 0.125 | > 32 | 2 | 2 | 1 | 1
14 | Clostridioides difficile PCR ribotype 027 isolate #125 (European region: East, country: Romania, isolate source: Human, ribotype: 027) | 2 | 64 |  |  | > 32 | 4 | 4 | 1 | 1
15 | Clostridioides difficile PCR ribotype 039 isolate #148 (European region: North, country: UK, isolate source: Human, ribotype: 039) | 2 | 2 | 0.004 | < 0.03 | < 0.001 | 4 |  | < 0.125 | 0.5
16 | Clostridioides difficile PCR ribotype 050 isolate #327 (European region: West, country: Austria, isolate source: Animal, ribotype: 050) | 2 | 16 | 0.015 | < 0.03 | < 0.001 | 2 | 4 | < 0.125 | 
17 | Clostridioides difficile PCR ribotype 077 isolate #177 (European region: East, country: Poland, isolate source: Human, ribotype: 077) | 2 | 8 | 0.03 | < 0.03 | < 0.001 | 2 | 2 | < 0.125 | 
18 | Clostridioides difficile PCR ribotype 077 isolate #178 (European region: East, country: Poland, isolate source: Human, ribotype: 077) | 2 | 16 | 0.06 | < 0.03 | < 0.001 | 2 | 2 | < 0.125 | 
19 | Clostridioides difficile PCR ribotype 078 isolate #184 (European region: South, country: Greece, isolate source: Human, ribotype: 078) | 2 | 2 | 0.125 | < 0.03 | < 0.001 | 2 | 2 | < 0.125 | 
20 | Clostridioides difficile PCR ribotype 081 isolate #194 (European region: South, country: Italy, isolate source: Human, ribotype: 081) | 2 | 16 | 0.008 | 0.125 | < 0.001 | 4 | 2 | < 0.125 | 
21 | Clostridioides difficile PCR ribotype 089 isolate #198 (European region: South, country: Italy, isolate source: Human, ribotype: 089) | 2 | 8 | 0.125 | < 0.03 | < 0.001 | 2 | 2 | < 0.125 | 
22 | Clostridioides difficile PCR ribotype 126 isolate #215 (European region: South, country: Italy, isolate source: Human, ribotype: 126) | 2 | 16 | 0.06 | 0.06 | < 0.001 | 2 | 2 | 0.25 | 
23 | Clostridioides difficile PCR ribotype 176 isolate #226 (European region: East, country: Slovakia, isolate source: Human, ribotype: 176) | 2 | 8 | 0.03 | < 0.03 | 4 | 8 | 8 | 0.25 | 
24 | Clostridioides difficile PCR ribotype 198 isolate #255 (European region: East, country: Poland, isolate source: Human, ribotype: 198) | 2 | > 128 |  | 0.5 | 0.03 | 4 | 4 | 4 | < 0.125
25 | Clostridioides difficile PCR ribotype 353 isolate #261 (European region: South, country: Italy, isolate source: Human, ribotype: 353) | 2 | 4 | 0.03 | < 0.03 | > 32 | 2 | 2 | < 0.125 | 
26 | Clostridioides difficile PCR ribotype 511 isolate #268 (European region: South, country: Italy, isolate source: Human, ribotype: 511) | 2 | 2 | 0.125 | < 0.03 | < 0.001 | 2 | 2 | < 0.125 | 
27 | Clostridioides difficile PCR ribotype 926 isolate #278 (European region: West, country: Netherlands, isolate source: Human, ribotype: 926) | 2 | 0.5 | 0.125 | 0.125 | < 0.001 | 4 | 4 | < 0.125 | 

Only minimum inhibitory concentration (rifampicin) [µg/mL] and minimum inhibitory concentration (fidaxomicin) [µg/mL], for some of the entries so far:
Row	Test System	minimum inhibitory concentration (rifampicin) [µg/mL]	minimum inhibitory concentration (fidaxomicin) [µg/mL]
19	Clostridioides difficile PCR ribotype 078 isolate #184 (European region: South, country: Greece, isolate source: Human, ribotype: 078)	< 0.001	0.125
20	Clostridioides difficile PCR ribotype 081 isolate #194 (European region: South, country: Italy, isolate source: Human, ribotype: 081)	< 0.001	0.008
